This passage reports binding results from article PMC12795675.

Protein sequences, listed by entry. Tags and fused reporters are not part of them. Residues count along the entry.
UniProt Q96AP0: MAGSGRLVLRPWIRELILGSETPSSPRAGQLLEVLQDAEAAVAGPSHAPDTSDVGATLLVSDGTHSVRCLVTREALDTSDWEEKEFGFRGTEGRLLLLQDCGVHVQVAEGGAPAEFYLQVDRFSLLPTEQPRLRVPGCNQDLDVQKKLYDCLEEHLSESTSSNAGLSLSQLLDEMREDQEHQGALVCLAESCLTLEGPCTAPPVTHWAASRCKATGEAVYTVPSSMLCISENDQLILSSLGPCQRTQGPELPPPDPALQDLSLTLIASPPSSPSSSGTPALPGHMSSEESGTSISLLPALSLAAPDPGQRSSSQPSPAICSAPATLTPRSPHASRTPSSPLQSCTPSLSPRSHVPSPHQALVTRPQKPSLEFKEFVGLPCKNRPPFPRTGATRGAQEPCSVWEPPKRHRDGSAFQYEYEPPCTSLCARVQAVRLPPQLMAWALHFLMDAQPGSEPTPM
UniProt P11021, residues 19-654: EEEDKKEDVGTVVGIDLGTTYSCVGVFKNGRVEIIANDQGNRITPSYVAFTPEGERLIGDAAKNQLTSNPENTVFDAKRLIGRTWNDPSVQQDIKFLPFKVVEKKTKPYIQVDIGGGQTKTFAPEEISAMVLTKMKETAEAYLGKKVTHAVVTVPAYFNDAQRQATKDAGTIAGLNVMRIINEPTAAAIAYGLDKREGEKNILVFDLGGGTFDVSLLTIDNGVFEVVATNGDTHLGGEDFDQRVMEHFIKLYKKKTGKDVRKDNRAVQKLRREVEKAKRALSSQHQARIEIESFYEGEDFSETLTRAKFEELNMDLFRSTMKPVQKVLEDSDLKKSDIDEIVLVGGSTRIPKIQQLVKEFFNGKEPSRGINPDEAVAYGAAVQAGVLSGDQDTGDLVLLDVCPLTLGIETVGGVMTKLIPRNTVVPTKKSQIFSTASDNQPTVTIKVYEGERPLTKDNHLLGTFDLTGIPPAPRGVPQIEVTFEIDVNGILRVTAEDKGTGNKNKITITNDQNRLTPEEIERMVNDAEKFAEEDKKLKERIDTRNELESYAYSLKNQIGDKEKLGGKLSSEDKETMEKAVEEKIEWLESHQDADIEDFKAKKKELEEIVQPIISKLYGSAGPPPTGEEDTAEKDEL

Results are given in words; binding and its absence hold for the method and conditions named. Binding seen in cells or lysates may run through a third protein. Some results given as binding are weak or reduced against the parent protein; the word gives no strength.

Test [1] addresses Telomere-protecting protein 1 (human (endogenous in MKN-45 and HGC-27)) (UniProt Q96AP0). Kind of test: co-IP; endogenous proteins in lysates of MKN-45 or HGC-27 cells; indicated antibodies overnight at 4 °C, Protein G beads 2 h at 4 °C, Western blot; cells also treated with H. pylori, TPP1 overexpression (AAV-TPP1) or TPP1 knockdown (AAV-sh-TPP1). A general note: In western blotting, separated proteins are transferred to a membrane and probed.

Test [2] concerns the target 78 kDa glucose-regulated protein (human (endogenous in MKN-45 and HGC-27)) (UniProt P11021). The description is as above.

For the substance “78 kDa glucose-regulated protein (from UniProt P11021 19-654)”, the binding result in test [1] is “binds”.

With “Telomere-protecting protein 1 (from UniProt Q96AP0 1-458)”, in test [2], the binding result is given as “binds”.
